Test results taken from paper PMC9176654.
No constants are given. Whether binding was seen depends on the method and setting. Binding seen in cells or lysates may run through a third protein. Some entries that bind do so weakly or less than the wild type. For some assays here: Tags and fused reporters may be left off the sequences shown.

Chains of the proteins cited; added tags and fusions are not shown.
UniProt P0DTC3: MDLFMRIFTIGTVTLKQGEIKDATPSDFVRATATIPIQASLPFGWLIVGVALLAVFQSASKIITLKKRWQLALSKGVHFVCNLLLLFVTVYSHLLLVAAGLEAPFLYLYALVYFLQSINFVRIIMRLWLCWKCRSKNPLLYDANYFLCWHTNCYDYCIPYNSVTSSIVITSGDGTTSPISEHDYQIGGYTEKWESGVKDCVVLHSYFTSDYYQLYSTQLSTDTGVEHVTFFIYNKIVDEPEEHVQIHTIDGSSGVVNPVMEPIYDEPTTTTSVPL
UniProt P0DTD8: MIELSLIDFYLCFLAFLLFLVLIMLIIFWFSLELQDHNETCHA

Key:
ORF3a-FLAG (SARS-CoV-2) = ORF3a-FLAG (SARS-CoV-2) (UniProt P0DTC3); assay: co-IP
ORF7b-FLAG (SARS-CoV-2) = ORF7b-FLAG (SARS-CoV-2) (UniProt P0DTD8); assay: co-IP

| Binder | binding (ORF3a-FLAG (SARS-CoV-2)) | binding (ORF7b-FLAG (SARS-CoV-2)) |
| --- | --- | --- |
| ZNF579 (protein, UniProt Q8NAF0 1-562) MDPQPPPPAQGSPPHRGRGRGRGRGRGRGRGRGRGGAGAPRAPLPCPTCGRLFRFPYYLSRHRLSHSGLRPHACPLCPKAFRRPAHLSRHLRGHGPQPPLRCAACPRTFPEPAQLRRHLAQEHAGGEVELAIERVAKETAEPSWGPQDEGSEPPTTAAAGATEEEAVAAWPETWPAGEPSTLAAPTSAAEPRESESEEAEAGAAELRAELALAAGRQEEKQVLLQADWTLLCLRCREAFATKGELKAHPCLRPEGEQEGEGGPPPRPKRHQCSICLKAFARPWSLSRHRLVHSTDRPFVCPDCGLAFRLASYLRQHRRVHGPLSLLAPLPAAGKKDDKASGARNSAKGPEGGEGAECGGASEGGEGQNGGDAAPARPPAGEPRFWCPECGKGFRRRAHLRQHGVTHSGARPFQCVRCQREFKRLADLARHAQVHAGGPAPHPCPRCPRRFSRAYSLLRHQRCHRAELERAAALQALQAQAPTSPPPPPPPLKAEQEEEGLPLPLANIKEEPPSPGTPPQSPPAPPVFLSASCFDSQDHSAFEMEEEEVDSKAHLRGLGGLAS | binds | – |
| STT3A-MYC (protein, UniProt P46977 1-705) MTKFGFLRLSYEKQDTLLKLLILSMAAVLSFSTRLFAVLRFESVIHEFDPYFNYRTTRFLAEEGFYKFHNWFDDRAWYPLGRIIGGTIYPGLMITSAAIYHVLHFFHITIDIRNVCVFLAPLFSSFTTIVTYHLTKELKDAGAGLLAAAMIAVVPGYISRSVAGSYDNEGIAIFCMLLTYYMWIKAVKTGSICWAAKCALAYFYMVSSWGGYVFLINLIPLHVLVLMLTGRFSHRIYVAYCTVYCLGTILSMQISFVGFQPVLSSEHMAAFGVFGLCQIHAFVDYLRSKLNPQQFEVLFRSVISLVGFVLLTVGALLMLTGKISPWTGRFYSLLDPSYAKNNIPIIASVSEHQPTTWSSYYFDLQLLVFMFPVGLYYCFSNLSDARIFIIMYGVTSMYFSAVMVRLMLVLAPVMCILSGIGVSQVLSTYMKNLDISRPDKKSKKQQDSTYPIKNEVASGMILVMAFFLITYTFHSTWVTSEAYSSPSIVLSARGGDGSRIIFDDFREAYYWLRHNTPEDAKVMSWWDYGYQITAMANRTILVDNNTWNNTHISRVGQAMASTEEKAYEIMRELDVSYVLVIFGGLTGYSSDDINKFLWMVRIGGSTDTGKHIKENDYYTPTGEFRVDREGSPVLLNCLMYKMCYYRFGQVYTEAKRPPGFDRVRNAEIGNKDFELDVLEEAYTTEHWLVRIYKVKDLDNRGLSRT | – | binds |
